Data reported in article PMC11094195.
No constants are given. Whether binding was seen depends on the method and setting. In cells and extracts the contact can be indirect. Some results given as binding are weak or reduced against the parent protein; the word gives no strength. Blank lines part the entries; values can stand above or below the molecule they belong to.

Amino acid sequences for entries named in this document (tags omitted). A change or cut given only in a name is not applied to a line headed by its entry.
UniProt P62195: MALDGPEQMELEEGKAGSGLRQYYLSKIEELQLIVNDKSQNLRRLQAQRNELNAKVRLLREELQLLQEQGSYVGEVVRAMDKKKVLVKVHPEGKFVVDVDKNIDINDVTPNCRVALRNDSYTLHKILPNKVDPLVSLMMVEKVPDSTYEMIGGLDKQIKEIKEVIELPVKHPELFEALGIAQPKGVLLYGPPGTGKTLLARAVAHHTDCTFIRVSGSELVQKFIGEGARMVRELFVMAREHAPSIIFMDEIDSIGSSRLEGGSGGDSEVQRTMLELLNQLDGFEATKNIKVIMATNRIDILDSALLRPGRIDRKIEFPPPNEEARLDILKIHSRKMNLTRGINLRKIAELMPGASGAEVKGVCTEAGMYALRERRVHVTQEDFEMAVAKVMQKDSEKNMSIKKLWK
UniProt O75928: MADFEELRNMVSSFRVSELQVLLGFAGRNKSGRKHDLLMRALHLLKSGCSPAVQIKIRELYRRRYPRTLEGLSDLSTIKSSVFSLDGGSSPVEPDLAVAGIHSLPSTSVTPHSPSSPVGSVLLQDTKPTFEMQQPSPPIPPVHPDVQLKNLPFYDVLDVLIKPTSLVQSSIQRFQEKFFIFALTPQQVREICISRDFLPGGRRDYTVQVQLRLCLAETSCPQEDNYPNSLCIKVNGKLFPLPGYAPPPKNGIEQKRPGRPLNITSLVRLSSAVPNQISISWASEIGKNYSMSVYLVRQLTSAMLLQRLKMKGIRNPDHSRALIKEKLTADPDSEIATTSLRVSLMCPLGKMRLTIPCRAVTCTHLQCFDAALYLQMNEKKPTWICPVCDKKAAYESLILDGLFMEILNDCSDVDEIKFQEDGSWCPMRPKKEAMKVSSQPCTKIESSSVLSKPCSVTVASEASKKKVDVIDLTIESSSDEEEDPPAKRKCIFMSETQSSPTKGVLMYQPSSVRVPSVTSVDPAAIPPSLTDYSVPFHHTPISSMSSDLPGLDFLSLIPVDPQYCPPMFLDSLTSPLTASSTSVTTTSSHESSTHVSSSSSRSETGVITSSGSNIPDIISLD
UniProt Q13509: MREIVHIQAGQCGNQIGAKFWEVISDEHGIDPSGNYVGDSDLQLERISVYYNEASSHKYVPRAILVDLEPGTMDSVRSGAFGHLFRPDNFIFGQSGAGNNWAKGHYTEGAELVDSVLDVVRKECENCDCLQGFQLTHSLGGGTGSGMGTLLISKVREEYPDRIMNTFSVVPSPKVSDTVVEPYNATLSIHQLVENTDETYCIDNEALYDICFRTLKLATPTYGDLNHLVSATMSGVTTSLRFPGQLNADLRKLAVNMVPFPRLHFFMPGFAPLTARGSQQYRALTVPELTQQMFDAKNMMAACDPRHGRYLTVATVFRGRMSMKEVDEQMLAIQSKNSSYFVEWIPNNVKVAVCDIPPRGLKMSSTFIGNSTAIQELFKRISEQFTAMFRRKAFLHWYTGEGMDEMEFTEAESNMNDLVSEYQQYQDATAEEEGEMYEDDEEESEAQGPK
UniProt P67775: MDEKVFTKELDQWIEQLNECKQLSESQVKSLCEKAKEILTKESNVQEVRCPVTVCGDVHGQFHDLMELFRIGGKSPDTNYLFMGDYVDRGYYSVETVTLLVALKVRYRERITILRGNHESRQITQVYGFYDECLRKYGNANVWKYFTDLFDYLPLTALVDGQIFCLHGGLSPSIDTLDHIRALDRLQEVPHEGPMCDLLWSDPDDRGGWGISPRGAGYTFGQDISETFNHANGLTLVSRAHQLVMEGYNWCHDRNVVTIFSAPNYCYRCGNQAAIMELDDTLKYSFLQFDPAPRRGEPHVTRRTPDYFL

Key:
EGFP-PSMC5 = EGFP-PSMC5 (UniProt P62195); test: pull-down; GFP-Trap beads with 2 mg lysate of 8305C cells transfected with EGFP constructs, SUMO-lysis buffer with N-ethylmaleimide (non-denaturing), 4 °C overnight, western blot; asynchronous, DT/R-0 h and DT/R-6 h cells
FLAG-PSMC5 = FLAG-PSMC5 (UniProt P62195); test: co-IP; anti-FLAG (M2) pull down from lysates of cells transfected with FLAG-hPIAS2b or FLAG-PSMC5, protein G-Sepharose, western blot
[1] = molecular target: PIAS2 beta isoform (PIAS2b), endogenous (human (endogenous in 8305C)) (UniProt O75928); test: co-IP; endogenous proteins in extracts of asynchronous or DT/R-0 h 8305C cells, western blot
[2] = molecular target: PIAS2 beta isoform (PIAS2b), endogenous (human (endogenous in 8305C)) (UniProt O75928); test: co-IP; endogenous proteins in 8305C extracts synchronized at mitosis (DT/R-6 h; for TUBB3 also DT/R-0 h), antibody overnight, protein G-Sepharose, 5 washes with HNTG buffer, western blot
FLAG-hPIAS2b (human) [3] = molecular target: FLAG-hPIAS2b (human) (UniProt O75928); test: co-IP; anti-FLAG (M2) pull down from lysates of cells transfected with FLAG-hPIAS2b or FLAG-PSMC5, protein G-Sepharose, western blot
FLAG-hPIAS2b (human) [4] = molecular target: FLAG-hPIAS2b (human) (UniProt O75928); test: co-IP; transfected exogenous human PIAS2b in DT/R-6 h synchronized mitotic 8305C, western blot; tag and antibody not told in the legend

- binding (EGFP-PSMC5): binds
- binding (FLAG-PSMC5): binds
Molecule: PIAS2 beta isoform (PIAS2b), endogenous (from UniProt O75928-1 1-621)

- binding (EGFP-PSMC5): binds
- binding [2]: binds
- binding (FLAG-hPIAS2b (human) [3]): binds
Molecule: PSMC5, endogenous (from UniProt P62195 1-406)
- binding [1]: no binding (condition: asynchronous or DT/R-0 h cells)

- binding [2]: binds
- binding (FLAG-hPIAS2b (human) [3]): binds
Molecule: TUBB3, endogenous (from UniProt Q13509 1-450)

- binding [2]: binds
Molecule: catalytic subunit of the serine/threonine-protein phosphatase 2A alpha isoform (PPP2CA), endogenous (from UniProt P67775 1-309)

- binding [2]: binds
- binding (FLAG-hPIAS2b (human) [4]): binds
B1: aurora kinase A (AURKA), endogenous (protein, UniProt O14965 1-403)
chain: MDRSKENCISGPVKATAPVGGPKRVLVTQQFPCQNPLPVNSGQAQRVLCPSNSSQRIPLQAQKLVSSHKPVQNQKQKQLQATSVPHPVSRPLNNTQKSKQPLPSAPENNPEEELASKQKNEESKKRQWALEDFEIGRPLGKGKFGNVYLAREKQSKFILALKVLFKAQLEKAGVEHQLRREVEIQSHLRHPNILRLYGYFHDATRVYLILEYAPLGTVYRELQKLSKFDEQRTATYITELANALSYCHSKRVIHRDIKPENLLLGSAGELKIADFGWSVHAPSSRRTTLCGTLDYLPPEMIEGRMHDEKVDLWSLGVLCYEFLVGKPPFEANTYQETYKRISRVEFTFPDFVTEGARDLISRLLKHNPSQRPMLREVLEHPWITANSSKPSNCQNKESASKQS
